Measured values: patent publication US20170037136A1
Results are given in words; binding and its absence hold for the method and conditions named. Some binding calls cover weakened binding; strength is not graded here.

Sequences of proteins named here, by UniProt entry; tags and fusion partners are left off. A change or cut given only in a name is not applied to a line headed by its entry.
UniProt P29965: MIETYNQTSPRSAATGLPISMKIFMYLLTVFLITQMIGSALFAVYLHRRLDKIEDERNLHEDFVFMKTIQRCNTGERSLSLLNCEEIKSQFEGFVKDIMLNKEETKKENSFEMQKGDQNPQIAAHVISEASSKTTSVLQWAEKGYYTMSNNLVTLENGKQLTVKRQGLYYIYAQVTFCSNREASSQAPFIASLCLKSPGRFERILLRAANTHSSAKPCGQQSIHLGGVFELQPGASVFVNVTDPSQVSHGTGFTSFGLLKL

Legend:
[1] = target: shCD154-his (soluble human CD154, His6 fusion) (human) (UniProt P29965); assay: SPR (ProteOn XPR36) as in Example 1
[2] = target: soluble human CD154 (shCD154) (human) (UniProt P29965); assay: SE-HPLC of antibody with AF488-labelled shCD154 at 1:1 and 10:1 molar ratio

binding [1]: binds | binding [2]: binds
B1: C4LB237 (antibody, V domains shown)
VH: QVQLVQSGAEVKKPGSSVKVSCKASGGTFSSYGISWVRQAPGQGLEWMGWISPIFGNTNYAQKFQGRVTITADESTSTAYMELSSLRSEDTAVYYCARSRYYGDLDYWGQGTLVTVSS
VL: DIQMTQSPSSLSASVGDRVTITCRASQSISSYLNWYQQKPGKAPKLLIYYANSLQSGVPSRFSGSGSGTDFTLTISSLQPEDFATYYCQQSDSIPWTFGQGTKVEIK
